Measurements from article PMC12040169 (PLOS Biology, 2025).
Some of the results follow.

What follows are compounds tested on T1, CTL2-GFP (C. trachomatis L2/434/Bu, GFP-expressing). Details: bulk GFP, single well; 28.5 h, 10 µM; inhibitor.
T1 construct: L2/434/Bu, GFP-expressing
Parameters: species or system HeLa; Intracellular C. trachomatis growth in HeLa cells, bulk GFP fluorescence relative to DMSO

Row | SMILES | % of control remaining [%]
1 | CCOC(=O)c1c(NC(=O)CCC(=O)O)sc2c1CCCCC2 [CBK262648] | 100
2 | Cc1ccsc1C(=O)N1CCC(c2nn(C)c3ncccc23)CC1 [CBK285102] | 120.506
3 | O=C(c1ccccc1Cl)N1CCN(c2ccc([N+](=O)[O-])c(NCc3cccnc3)c2)CC1 [CBK265866] | 90.5269
4 | COCCn1c(SCc2c(C)nc3ccccn23)nc(C)c1C [CBK305212] | 136.138
5 | CC(C)c1ccc(S(=O)(=O)NC(C#N)c2ccccc2)cc1 (stereo not drawn) [CBK044403] | 95.6121
6 | O=C(N/N=C/c1ccc([N+](=O)[O-])cc1)c1ccc(O)cc1O [CBK261591] | 99.4102
7 | CC(C)[C@@H](CO)n1c(=O)[nH]c2ncc(-c3ccco3)nc21 [CBK065018] | 107.846
8 | CC(=O)Nc1ccc2nc(NC(=O)c3ccc(C)cc3)sc2c1 [CBK287304] | 139.86
9 | O=C(Nc1ccccc1)N(Cc1nc(-c2ccccc2)no1)C1CCCCC1 [CBK269830] | 123.907
10 | CCCCSc1sc(C(=O)O)c(-c2ccc(Cl)cc2)c1C#N [CBK122551] | 94.2275
11 | O=C1CCC[C@]2(CN(C(=O)C3CC3)C[C@H]2c2ccccc2F)N1 [CBK283357] | 128.559
12 | COc1cc(C)ccc1S(=O)(=O)Nc1cc(OC2CCNCC2)c2occc2c1 [CBK074192C] | 126.465
13 | O=C(O)c1cc(C=Cc2ccc(OC(F)F)cc2)nc2ccccc12 [CBK297532] | 158.888
14 | Cn1ncnc1CCNC(=O)N1CCCN(Cc2cccs2)CC1 [CBK307670] | 78.1275
15 | COc1cc(-c2nnc(CSCc3n[nH]c(=O)[nH]3)o2)cc(OC)c1OC [CBK299814] | 120.747
16 | OCC1CCCN(Cc2c(C3CCCC3)[nH]c3ncccc23)C1 (stereo not drawn) [CBK285332] | 164.04
17 | CCCCc1ccc(N2C(=O)CC(Nc3ccc(C(=O)O)cc3)C2=O)cc1 (stereo not drawn) [CBK296972] | 92.3882
18 | COc1ccc(C(NC(=O)N(C(C)C)C(C)C)c2nccn2C)cc1 (stereo not drawn) [CBK283568] | 87.2626
19 | Cn1cc(C(NC(=O)c2cn3ccsc3n2)C2CC(O)C2)cn1 (stereo not drawn) [CBK307428] | 127.193
20 | Cc1c(C(N)=O)sc2ncn(CCc3ccccc3)c(=O)c12 [CBK268492] | 134.37
21 | CCOc1ccc(-c2ccnc(N3CCOC(CN)C3)n2)cc1C(=O)O (stereo not drawn) [CBK307644] | 115.543

Row | SMILES | % of control remaining [%]
22 | Clc1ccc(OC/C=C2\Oc3ccc(Cl)cc3C2N2CCOCC2)c(Cl)c1 (stereo not drawn) [CBK262753] | 100
23 | Nc1ccc2c(-c3cc(F)cc(F)c3)ccnc2n1 [CBK067638] | 97.5157
24 | CS(=O)(=O)N(Cc1ccco1)Cc1cc2ccccc2nc1O [CBK269434] | 94.4612
25 | Cc1c(CN(C)CC(=O)Nc2cccc(C(F)(F)F)c2)cnn1C [CBK304341] | 114.261
26 | NC(=O)c1ccc(NC(=O)N2CCN(CCN3CCOCC3)CC2)cc1 [CBK155831] | 153.761
27 | CC(C)C[C@@H]1N[C@H](C(=O)NCC2CCOCC2)Cc2c[nH]c3cccc1c23 [CBK289427] | 135.418
28 | O=C(C1=Cc2ccccc2OC1)N1CCC(c2ccncc2)CC1 [CBK282339] | 75.697
29 | O=C1CCCN1CCCNC(=O)N1CCCC(CO)C1 (stereo not drawn) [CBK156063] | 156.42
30 | NC(=O)c1cccnc1-c1nc2ccccc2s1 [CBK287930] | 152.671
31 | Cc1cc(C)c(C)c(S(=O)(=O)N(CCO)CCO)c1C [CBK269082] | 125.446
32 | FC(F)(F)c1nc2ccccc2nc1SCCOc1ccccc1 [CBK103726] | 116.781
33 | O=C(O)c1cccc(-c2cnc(NCC3CC3)c(C(=O)NCC(F)(F)F)c2)c1 [CBK106420] | 98.2081
34 | Cn1nccc1CCC(=O)N1CC[C@H]2NC(=O)c3ccccc3OCCCCC[C@H]2C1 [CBK292028] | 121.455
35 | COc1cccc(C2(NC(=O)CCn3nccc3C)CCCC2)c1 [CBK283601] | 107.792
36 | CCOC(=O)CC1C(=O)NCCN1C/C=C/c1ccccc1 (stereo not drawn) [CBK269922] | 121.697
37 | CCn1cc(S(=O)(=O)NCc2ccc3[nH]c4c(c3c2)CCCC4)cn1 [CBK307225] | 141.459
38 | O=C(NCC1Cc2ccccc2O1)c1ccc(Br)cc1Cl (stereo not drawn) [CBK298323] | 95.7868
39 | COc1ccc(CC(=O)N2CCCC(c3nccnc3-c3cccc(C)c3)C2)cc1 (stereo not drawn) [CBK286137] | 122.705
40 | O=C(C1CCC1)N1C2CCC1Cn1c(nc3ccccc3c1=O)C2 (stereo not drawn) [CBK284453] | 136.481
41 | COc1ccc(NS(=O)(=O)c2ccc(C)cc2)cn1 [CBK010484] | 135.662
42 | COc1cc(C(=O)NN)cc(OC)n1 [CBK012275] | 131.793

Two records drawn at random from the list so far:
Row | SMILES | % of control remaining [%]
37 | CCn1cc(S(=O)(=O)NCc2ccc3[nH]c4c(c3c2)CCCC4)cn1 [CBK307225] | 141.459
38 | O=C(NCC1Cc2ccccc2O1)c1ccc(Br)cc1Cl (stereo not drawn) [CBK298323] | 95.7868

A run of entries from the list above:
Row | SMILES | % of control remaining [%]
20 | Cc1c(C(N)=O)sc2ncn(CCc3ccccc3)c(=O)c12 [CBK268492] | 134.37
21 | CCOc1ccc(-c2ccnc(N3CCOC(CN)C3)n2)cc1C(=O)O (stereo not drawn) [CBK307644] | 115.543
22 | Clc1ccc(OC/C=C2\Oc3ccc(Cl)cc3C2N2CCOCC2)c(Cl)c1 (stereo not drawn) [CBK262753] | 100
23 | Nc1ccc2c(-c3cc(F)cc(F)c3)ccnc2n1 [CBK067638] | 97.5157

The listing continues:

Row | SMILES | % of control remaining [%]
43 | Clc1ccc(CN2CCCN(c3nccc(OCC4COc5ccccc5O4)n3)CC2)cc1 (stereo not drawn) [CBK084038] | 96.3462
44 | Cc1cc(C)cc(NC(=O)C2CC(=O)N=C(NCc3ccccc3)N2)c1 (stereo not drawn) [CBK269054] | 139.89
45 | O=C(CC1NC(=O)N(C2CCCCC2)C1=O)Nc1cccc(CCc2ccncc2)c1 (stereo not drawn) [CBK285563] | 135.479
46 | Cc1nnc(SCc2nc3ccccc3c(=O)[nH]2)[nH]1 [CBK267830] | 126.05
47 | CC(=O)Nc1cc2nc3ccccc3nc2cc1NC(C)=O [CBK261018] | 118.364
48 | COC(=O)CN1C(c2ccccc2O)Nc2ccc(Br)cc2C1c1ccccc1 (stereo not drawn) [CBK263133] | 114.409
49 | CC(=O)N1CCc2ccc(S(=O)(=O)n3ccc4c(N5CCNCC5)cccc43)cc2C1 [CBK001632C] | 70.8164
50 | Cc1ccc(S(=O)(=O)NCCOc2ccccc2)c(C)c1NS(C)(=O)=O [CBK268210] | 128.423
51 | COc1ccc(OCC(=O)N2CCN(C3CCC(c4ccccc4)CC3)CC2)cc1 (stereo not drawn) [CBK263459] | 106.649
52 | c1ccc(C(Oc2nccnc2-c2ccc3c(c2)OCO3)c2ccccc2)cc1 [CBK106707] | 93.5935
53 | COc1cc2c(cc1-c1nccn1CC1CN(C(C)=O)CCO1)CCC2 (stereo not drawn) [CBK306850] | 130.156
54 | O=C(c1ccc(F)cc1)N1C[C@@H](c2ccsc2)[C@@H]2CN(Cc3cccc(F)c3)CC[C@@H]21 [CBK285640] | 135.625
55 | COc1cccc(C2(NC(=O)Cn3nc(C)cc3C)CCCC2)c1 [CBK283648] | 77.4747
56 | CCOC(=O)C1CCCCN1Cc1ccc(O)c(OC)c1 (stereo not drawn) [CBK261541] | 107.732
57 | O=C(O)c1c[nH]nc1-c1ccc(Br)cc1 [CBK266368] | 182.685
58 | CCn1ncc2c(C(=O)NC(C)COC)cc(-c3cccs3)nc21 (stereo not drawn) [CBK304955] | 114.783
59 | Oc1ccc(-c2nccnc2NCCc2ccncc2)cc1 [CBK037302] | 139.03
60 | CCNC(=O)CN1CCN(C(=O)C(C)(C)c2cccc(C#N)c2)CC1 [CBK306141] | 115.386
61 | Cn1c2ccccc2c2nnc(NCCCCO)nc21 [CBK023366] | 146.957
62 | COc1ncc(-c2nccnc2NCC(C)O)c(OC)n1 (stereo not drawn) [CBK036970] | 147.241
63 | COCc1c(Br)c(C)nc(OCC(=O)O)c1C#N [CBK266532] | 128.462

Row | SMILES | % of control remaining [%]
64 | CC(=O)c1ccc(-c2nccnc2N[C@@H](CO)C(C)C)s1 [CBK037404] | 124.853
65 | O=C(Nc1ccccc1O)c1cc(S(=O)(=O)N2CCCCCC2)ccc1Cl [CBK264554] | 98.1527
66 | C[C@]12CN(CC3CC=CCC3)C[C@H]1C(=O)Nc1ccccc1C(=O)N2 (stereo partly drawn) [CBK284738] | 80.0603
67 | C[S+]([O-])CCNC(=O)c1cc2c(Cl)cccc2[nH]1 (stereo not drawn) [CBK283304] | 129.921
68 | Brc1cn2ccnc2c(N2CCCC2)n1 [CBK085449] | 115.741
69 | COc1cc(Br)c(-c2nnn[nH]2)cc1OC [CBK270093] | 110.83
70 | O=S(=O)(NCc1ccc2c(c1)OCO2)c1ccc2c(c1)oc1ccccc12 [CBK268308] | 121.924
71 | COCCNc1nc2c(c(N3CCCC(CO)C3)n1)CCNCC2 (stereo not drawn) [CBK307242] | 125.056
72 | Cn1nc2c(c1O)CCCC2 [CBK089897] | 95.7011
73 | CCOc1cc(OCC)nc(Oc2ccc(C(=O)OC)cc2)n1 [CBK107733] | 144.357
74 | CCc1cc2c(=O)c(-c3cnn(-c4ccccc4)c3)c(C(F)(F)F)oc2c(CN2CCCCC2)c1O [CBK264458] | 128.829
75 | COc1cccc(N2CCN(C(C(=O)O)c3cn(C)c4cc(C(=O)O)ccc34)CC2)c1 (stereo not drawn) [CBK286701] | 108.378
76 | Cc1cc(=O)n2c(C(=O)Nc3ccc(C(=O)O)cc3)c(C(=O)Nc3cccc(C)c3C)sc2n1 [CBK297547] | 121.356
77 | COCCNC(=O)c1ccc(-c2ccc3c(c2)OCO3)nc1N(C)C [CBK106050] | 106.17
78 | CCCCc1ccc(-c2cnc(N)c3ncccc23)cc1 [CBK067588] | 122.376
79 | CN(C)c1ccc(CN(CCO)CCO)cc1 [CBK261921] | 100
80 | CC(C)(C)C(=O)Nc1ccc(-c2ccc(NC(=O)C(C)(C)C)c(C(=O)O)c2)cc1C(=O)O [CBK261392] | 110.27
81 | CC(C)N1C[C@@H](C(=O)NC(C)(C)C)[C@@]2(Cc3ccccc3C(=O)N2)C1 [CBK285295] | 102.609
